{
  "sequences": {"note": "By UniProt entry, the sequences of proteins in these tests, tags left out. Residues count along the entry.", "UniProt Q5JRA6, residues 23-1907": "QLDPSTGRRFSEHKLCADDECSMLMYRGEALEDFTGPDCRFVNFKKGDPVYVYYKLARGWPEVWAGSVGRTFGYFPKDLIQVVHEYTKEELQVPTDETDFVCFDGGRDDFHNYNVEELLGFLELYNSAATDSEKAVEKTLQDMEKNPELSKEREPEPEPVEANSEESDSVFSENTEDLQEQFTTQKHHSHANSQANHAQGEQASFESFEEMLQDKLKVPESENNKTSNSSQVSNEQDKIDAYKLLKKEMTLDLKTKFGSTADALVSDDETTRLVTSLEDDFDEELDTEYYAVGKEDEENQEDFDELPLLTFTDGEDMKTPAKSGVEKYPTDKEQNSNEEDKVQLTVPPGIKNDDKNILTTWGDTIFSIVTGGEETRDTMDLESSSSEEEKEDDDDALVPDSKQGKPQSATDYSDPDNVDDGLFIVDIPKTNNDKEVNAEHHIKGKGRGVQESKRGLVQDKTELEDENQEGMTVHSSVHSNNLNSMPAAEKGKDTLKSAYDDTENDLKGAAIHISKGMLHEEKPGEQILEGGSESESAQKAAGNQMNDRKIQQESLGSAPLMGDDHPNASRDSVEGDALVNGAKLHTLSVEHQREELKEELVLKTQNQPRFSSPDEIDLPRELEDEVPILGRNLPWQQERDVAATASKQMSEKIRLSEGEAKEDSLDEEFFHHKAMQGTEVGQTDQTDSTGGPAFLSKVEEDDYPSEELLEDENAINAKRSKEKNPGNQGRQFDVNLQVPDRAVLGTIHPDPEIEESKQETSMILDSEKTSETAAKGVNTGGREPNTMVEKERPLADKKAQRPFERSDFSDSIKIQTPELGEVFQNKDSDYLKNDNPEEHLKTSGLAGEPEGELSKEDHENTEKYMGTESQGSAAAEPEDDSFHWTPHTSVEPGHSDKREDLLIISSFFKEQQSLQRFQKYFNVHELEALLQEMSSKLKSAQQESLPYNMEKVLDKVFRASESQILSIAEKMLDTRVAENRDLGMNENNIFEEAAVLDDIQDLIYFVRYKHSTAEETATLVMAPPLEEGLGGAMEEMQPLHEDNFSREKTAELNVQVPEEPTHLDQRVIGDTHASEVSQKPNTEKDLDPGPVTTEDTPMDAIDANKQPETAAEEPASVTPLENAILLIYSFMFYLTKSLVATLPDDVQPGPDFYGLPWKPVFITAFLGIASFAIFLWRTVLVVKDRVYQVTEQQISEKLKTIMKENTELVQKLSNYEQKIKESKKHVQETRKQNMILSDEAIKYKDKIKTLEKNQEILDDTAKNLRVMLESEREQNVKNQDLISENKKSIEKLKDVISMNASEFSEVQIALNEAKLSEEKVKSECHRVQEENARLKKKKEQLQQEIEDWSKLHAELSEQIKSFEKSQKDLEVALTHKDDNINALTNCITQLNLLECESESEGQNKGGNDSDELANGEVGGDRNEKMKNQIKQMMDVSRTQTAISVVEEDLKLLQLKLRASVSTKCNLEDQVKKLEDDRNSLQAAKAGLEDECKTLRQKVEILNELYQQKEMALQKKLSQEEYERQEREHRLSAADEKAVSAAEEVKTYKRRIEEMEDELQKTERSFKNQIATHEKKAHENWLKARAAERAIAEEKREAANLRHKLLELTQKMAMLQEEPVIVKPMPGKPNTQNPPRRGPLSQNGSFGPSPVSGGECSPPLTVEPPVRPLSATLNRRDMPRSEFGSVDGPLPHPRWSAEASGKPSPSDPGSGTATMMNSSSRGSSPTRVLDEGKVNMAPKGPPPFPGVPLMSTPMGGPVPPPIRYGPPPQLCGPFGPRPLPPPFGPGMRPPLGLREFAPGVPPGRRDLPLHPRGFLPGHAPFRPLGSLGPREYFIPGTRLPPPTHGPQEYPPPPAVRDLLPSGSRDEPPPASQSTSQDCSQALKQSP"},
  "source": "paper PMC11455670",
  "binders": {"B1": {"name": "Glutathione-specific γ-glutamyl cyclotransferase 1 (CHAC1) (protein, UniProt Q9BUX1 1-222)", "chain": "MKQESAAPNTPPTSQSPTPSAQFPRNDGDPQALWIFGYGSLVWRPDFAYSDSRVGFVRGYSRRFWQGDTFHRGSDKMPGRVVTLLEDHEGCTWGVAYQVQGEQVSKALKYLNVREAVLGGYDTKEVTFYPQDAPDQPLKALAYVATPQNPGYLGPAPEEAIATQILACRGFSGHNLEYLLRLADFMQLCGPQAQDEHLAAIVDAVGTMLPCFCPTEQALALV"}},
  "key": {"[1]": {"target": "Melanoma inhibition active protein 3 (MIA3) (human (in human hepatoma cell lines; the line used is not named)) (UniProt Q5JRA6)", "assay": "co-IP; cells lysed in RIPA buffer at 4 °C, pre-cleared with immunoglobulin beads; anti-IgG, anti-MIA3 or anti-CHAC1 antibody overnight at 4 °C, protein A/G beads 4 h, Western blot; cell line not stated"}, "[2]": {"target": "Melanoma inhibition active protein 3 (MIA3) (human (in human hepatoma cell lines; the line used is not named)) (UniProt Q5JRA6)", "assay": "pull-down; named only in the legend of Fig. 6G ('COIP and pull down experiments'); no method given"}},
  "note": "Results are given in words; binding and its absence hold for the method and conditions named. In cells and extracts the contact can be indirect. Some entries that bind do so weakly or less than the wild type.",
  "data": [
    {"binder": "B1", "values": [
      {"measurement": "binding", "setting": "[1]", "value": "binds"},
      {"measurement": "binding", "setting": "[2]", "value": "binds"}
    ]}
  ]
}
